Results: patent US10201587B2, “Methods of inhibiting and treating biofilms using glycopeptide antibiotics” (MELINTA THERAPEUTICS, INC., priority 2008, dated 2019)
Some entries share one result that the patent states for a list of compounds.

What was measured:
MRSA ATCC 33591 = assay: Time-kill in nutrient-depleted CAMHB; format: cell-based, S. aureus; conditions: stationary-phase inoculum; for activity at the 24-hour time point: fCmax
Protocol: (§1) Nutrient-depleted CAMHB from each respective strain was prepared by 3 rounds of inoculation of CAMHB with exponential-phase bacteria, incubation overnight at 37° C. with rotation (225 rpm) and centrifugation (8000×g for 30 minutes) to remove bacteria. After the final round of inoculation, growth and centrifugation, the pH of the nutrient-depleted CAMHB was adjusted to pH=7.0 and the spent medium was filter-sterilized using a […] membrane (Corning Incorporated, Corning, N.Y.).
(§2) Nutrient-depleted CAMHB containing diluted antimicrobial agents was inoculated with stationary-phase bacteria from overnight cultures of the S. aureus strains at approximately 10^7 colony-forming units (CFU)/mL. Other experiments compared the killing of stationary- and exponential-phase S. aureus ATCC 29213 when inoculated into nutrient-depleted CAMHB containing the test agents. For assays involving daptomycin, nutrient-depleted CAMHB was supplemented with 50 μg/ml CaCl2 (8). All time-kill studies were performed in 96-well deep-well plates at 37° C. with rotation (225 rpm) in a total volume of 750 μL. Bacteria were enumerated by serial-dilution plating. Bacteriostatic and bactericidal activity of the antimicrobial agents were defined as a reduction in viable cell counts of <3 or ≥3 log at 24 hours relative to the starting inoculum, respectively (33). Experiments were repeated at least three times and produced similar results; results from one experiment are presented.

MSSA ATCC 29213 [1] = assay: Time-kill in nutrient-depleted CAMHB; format: cell-based, S. aureus
Protocol: as §1, §2

VRSA VRS5 = assay: Time-kill in nutrient-depleted CAMHB; format: cell-based, S. aureus; conditions: stationary-phase inoculum; for activity at the 24-hour time point: fCmax
Protocol: as §1, §2

MSSA ATCC 29213 [2] = assay: MBEC system in vitro biofilm (MIC and MBEC); format: cell-based, S. aureus; conditions: 72-hour biofilms
Protocol: (§3) The commercially-available MBEC™ system (Innovotech; Edmonton, AB, Canada) was used following the manufacturer's protocol (17) to establish in vitro biofilms of S. aureus and to determine the minimal biofilm eradication concentration (MBEC) of oritavancin and comparator antimicrobial agents. The MBEC represents the concentration of antimicrobial agent required to sterilize the biofilm after 24 hours of exposure. The MBEC™ system also allows for the determination of the minimal inhibitory concentration (MIC) of the test agent against planktonic cells under the conditions of the biofilm assay.
(§4) 150 μL of bacterial inocula at 10^7 CFU/mL in tryptic soy broth was aliquoted into each well of an MBEC plate. Biofilms were established for 24 hours in a rotary incubator at 37° C. and 150 rpm. For experiments involving 72-hour biofilms, peg lids were transferred each day to 96-well plates containing 150 μL/well of fresh tryptic soy broth and incubated another 24 hours. […] The recovery plates were sonicated for 5 minutes in an ultrasonic sonicating bath (VWR Aquasonic model 550D) at the maximum setting then incubated for 24 hours and the MBECs recorded. MBECs were determined from at least three independent experiments; results represent the ranges of MBECs obtained. […]

[3] = test system: S. aureus strains (MSSA ATCC 29213, MRSA ATCC 33591, VRSA VRS5); assay: MBEC system in vitro biofilm, statements over all three strains; format: cell-based; conditions: 24-hour biofilm
Protocol: as §3, §4

[4] = test system: E. faecium ATCC 51559 (VanA VRE); assay: MBEC plate biofilm eradication; format: cell-based; conditions: 24 h of drug challenge
From the text: (§5) The following strains were used for in vitro biofilm studies: vancomycin (VAN)-susceptible Enterococcus faecalis ATCC 29212 (VSE), VAN-resistant E. faecalis ATCC 51299 (VanB VRE), E. faecium ATCC 51559 (VanA VRE), S. epidermidis ATCC 12228 and the slime-producing strain S. epidermidis ATCC 35984. Biofilms were established in MBEC™ Physiology & Genetics Assay plates (Innovotech; Edmonton, Canada).

[5] = test system: S. epidermidis ATCC 12228; assay: MBEC plate biofilm eradication; format: cell-based; conditions: single agents
From the text: as §5

[6] = test system: VAN-resistant E. faecalis ATCC 51299 (VanB VRE); assay: MBEC plate biofilm eradication; format: cell-based; conditions: 24 h of drug challenge
From the text: as §5

[7] = test system: vancomycin (VAN)-susceptible Enterococcus faecalis ATCC 29212 (VSE); assay: MBEC plate biofilm eradication; format: cell-based; conditions: 24 h of drug challenge
From the text: as §5

SMILES | activity at the 24-hour time point (MRSA ATCC 33591) | activity at 24 hours (MRSA ATCC 33591; free-trough concentrations) | activity at the 24-hour time point (MSSA ATCC 29213 [1]; exponential-phase inoculum, estimated fCmax, nutrient-depleted CAMHB) | activity at the 24-hour time point (MSSA ATCC 29213 [1]; stationary-phase, free-trough concentrations) | activity at the 24-hour time point (VRSA VRS5) | activity at 24 hours (VRSA VRS5; free-trough concentrations) | MBEC (MSSA ATCC 29213 [2]) | MBEC [3] | MBEC [4] | MBEC [5] | MBEC [6] | MBEC [7]
CCCCCCCCCC(=O)N[C@@H](Cc1c[nH]c2ccccc12)C(=O)N[C@H](CC(N)=O)C(=O)N[C@@H](CC(=O)O)C(=O)N[C@@H]1C(=O)NCC(=O)N[C@@H](CCCN)C(=O)N[C@@H](CC(=O)O)C(=O)N[C@H](C)C(=O)N[C@@H](CC(=O)O)C(=O)NCC(=O)N[C@H](CO)C(=O)N[C@@H]([C@H](C)CC(=O)O)C(=O)N[C@@H](CC(=O)c2ccccc2N)C(=O)O[C@@H]1C [Daptomycin, daptomycin] | bactericidal (Bacteriostatic and bactericidal activity of the antimicrobial agents were defined as a reduction in viable cell counts of <3 or ≥3 log at 24 hours relative to the starting inoculum, respectively) | bacteriostatic (Bacteriostatic and bactericidal activity of the antimicrobial agents were defined as a reduction in viable cell counts of <3 or ≥3 log at 24 hours relative to the starting inoculum, respectively) | bactericidal (Bacteriostatic and bactericidal activity of the antimicrobial agents were defined as a reduction in viable cell counts of <3 or ≥3 log at 24 hours relative to the starting inoculum, respectively) | bacteriostatic (Bacteriostatic and bactericidal activity of the antimicrobial agents were defined as a reduction in viable cell counts of <3 or ≥3 log at 24 hours relative to the starting inoculum, respectively) | bacteriostatic (Bacteriostatic and bactericidal activity of the antimicrobial agents were defined as a reduction in viable cell counts of <3 or ≥3 log at 24 hours relative to the starting inoculum, respectively) | bacteriostatic (Bacteriostatic and bactericidal activity of the antimicrobial agents were defined as a reduction in viable cell counts of <3 or ≥3 log at 24 hours relative to the starting inoculum, respectively) | – | – | – | – | – | –
CC(=O)NC[C@H]1CN(c2ccc(N3CCOCC3)c(F)c2)C(=O)O1 [Linezolid, linezolid] | – | – | – | – | – | – | > 128 µg/mL | > 128 µg/mL | > 128 mg/L | > 128 mg/L | > 128 mg/L | > 128 mg/L
CO[C@H]1/C=C/O[C@@]2(C)Oc3c(C)c(O)c4c(O)c(c(/C=N/N5CCN(C)CC5)c(O)c4c3C2=O)NC(=O)/C(C)=C\C=C\[C@H](C)[C@H](O)[C@@H](C)[C@@H](O)[C@@H](C)[C@H](OC(C)=O)[C@@H]1C [Rifampicin, rifampicin] | bactericidal (Bacteriostatic and bactericidal activity of the antimicrobial agents were defined as a reduction in viable cell counts of <3 or ≥3 log at 24 hours relative to the starting inoculum, respectively) | – | – | – | bacteriostatic (Bacteriostatic and bactericidal activity of the antimicrobial agents were defined as a reduction in viable cell counts of <3 or ≥3 log at 24 hours relative to the starting inoculum, respectively) | – | – | – | – | – | – | –
